At least one structure is not confirmed: it was looked up by name or label, or the drawing left a doubt.
Assays:
[1] = test system: tyrosine aminotransferase (TAT) in HTC cells; type: cell-based, rat
J774.1 cells = type: cell-based
Raw264.7 cells = type: cell-based

| Structure (SMILES) | effect of MAPK inhibitor on dexamethasone-induced TAT activity [1] | effect of pretreatment on LeTx toxicity (J774.1 cells) | effect of pretreatment on LeTx toxicity (Raw264.7 cells) |
| --- | --- | --- | --- |
| Oc1c2ccccc2c2c3c(cccc13)N=N2 [SP600125] | repress dexamethasone-induced TAT activity | – | – |
| C[C@@H]1C[C@H]2[C@@H]3CCC4=CC(=O)C=C[C@]4(C)[C@@]3(F)[C@@H](O)C[C@]2(C)[C@@]1(O)C(=O)CO [Dex, dexamethasone] | – | does not prevent LeTx toxicity | does not prevent LeTx toxicity |
